Data from the supplement of paper PMC10849652.
Some of the results follow.

The chains behind the UniProt entries cited, without tags or fusion partners. Where a name states a change or a piece, a line headed by the entry shows the natural chain unless it says otherwise.
UniProt Q9H0A8, whole entry, looked up: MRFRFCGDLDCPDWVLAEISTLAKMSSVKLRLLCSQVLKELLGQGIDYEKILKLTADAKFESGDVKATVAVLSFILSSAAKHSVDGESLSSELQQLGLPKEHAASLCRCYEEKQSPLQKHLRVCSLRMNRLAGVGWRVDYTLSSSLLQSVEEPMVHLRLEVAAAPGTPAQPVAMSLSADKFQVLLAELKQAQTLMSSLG
UniProt P14854, whole entry, looked up: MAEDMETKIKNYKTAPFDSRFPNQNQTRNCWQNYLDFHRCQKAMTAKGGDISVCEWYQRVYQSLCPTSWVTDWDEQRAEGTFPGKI
UniProt Q8N684: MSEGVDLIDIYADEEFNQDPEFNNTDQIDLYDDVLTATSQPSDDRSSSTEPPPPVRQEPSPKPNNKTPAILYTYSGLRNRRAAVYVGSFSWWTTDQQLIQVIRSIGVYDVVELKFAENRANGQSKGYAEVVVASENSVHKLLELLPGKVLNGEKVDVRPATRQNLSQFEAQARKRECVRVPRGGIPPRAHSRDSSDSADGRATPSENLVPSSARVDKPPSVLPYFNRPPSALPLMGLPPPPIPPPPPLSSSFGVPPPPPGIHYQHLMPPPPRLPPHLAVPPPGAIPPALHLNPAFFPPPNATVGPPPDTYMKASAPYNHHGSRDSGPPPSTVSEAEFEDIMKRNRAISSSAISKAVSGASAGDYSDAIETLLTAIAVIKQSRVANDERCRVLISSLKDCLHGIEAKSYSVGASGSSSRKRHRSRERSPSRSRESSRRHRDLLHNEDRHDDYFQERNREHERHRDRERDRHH
UniProt Q96JB2: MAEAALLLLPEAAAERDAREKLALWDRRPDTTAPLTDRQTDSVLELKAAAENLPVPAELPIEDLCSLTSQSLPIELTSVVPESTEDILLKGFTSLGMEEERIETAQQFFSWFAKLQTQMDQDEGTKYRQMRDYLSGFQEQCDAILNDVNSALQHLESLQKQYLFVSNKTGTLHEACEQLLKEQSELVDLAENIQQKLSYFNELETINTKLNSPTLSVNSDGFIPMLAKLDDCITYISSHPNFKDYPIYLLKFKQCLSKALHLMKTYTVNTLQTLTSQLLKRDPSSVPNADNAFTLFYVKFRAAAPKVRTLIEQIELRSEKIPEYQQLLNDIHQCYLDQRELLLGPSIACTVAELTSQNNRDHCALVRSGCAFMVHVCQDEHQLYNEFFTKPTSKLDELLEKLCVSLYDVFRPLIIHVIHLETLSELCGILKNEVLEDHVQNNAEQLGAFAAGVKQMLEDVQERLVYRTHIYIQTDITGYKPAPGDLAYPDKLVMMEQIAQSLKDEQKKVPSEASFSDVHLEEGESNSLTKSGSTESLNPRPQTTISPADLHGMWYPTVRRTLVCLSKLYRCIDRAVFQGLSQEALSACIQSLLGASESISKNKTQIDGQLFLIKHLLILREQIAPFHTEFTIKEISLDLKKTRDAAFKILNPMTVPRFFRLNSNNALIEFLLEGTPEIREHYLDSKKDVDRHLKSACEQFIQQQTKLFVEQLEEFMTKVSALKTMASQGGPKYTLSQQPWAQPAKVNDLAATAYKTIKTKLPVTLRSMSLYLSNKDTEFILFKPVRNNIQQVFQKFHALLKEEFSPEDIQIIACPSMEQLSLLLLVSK
UniProt Q9UBF2: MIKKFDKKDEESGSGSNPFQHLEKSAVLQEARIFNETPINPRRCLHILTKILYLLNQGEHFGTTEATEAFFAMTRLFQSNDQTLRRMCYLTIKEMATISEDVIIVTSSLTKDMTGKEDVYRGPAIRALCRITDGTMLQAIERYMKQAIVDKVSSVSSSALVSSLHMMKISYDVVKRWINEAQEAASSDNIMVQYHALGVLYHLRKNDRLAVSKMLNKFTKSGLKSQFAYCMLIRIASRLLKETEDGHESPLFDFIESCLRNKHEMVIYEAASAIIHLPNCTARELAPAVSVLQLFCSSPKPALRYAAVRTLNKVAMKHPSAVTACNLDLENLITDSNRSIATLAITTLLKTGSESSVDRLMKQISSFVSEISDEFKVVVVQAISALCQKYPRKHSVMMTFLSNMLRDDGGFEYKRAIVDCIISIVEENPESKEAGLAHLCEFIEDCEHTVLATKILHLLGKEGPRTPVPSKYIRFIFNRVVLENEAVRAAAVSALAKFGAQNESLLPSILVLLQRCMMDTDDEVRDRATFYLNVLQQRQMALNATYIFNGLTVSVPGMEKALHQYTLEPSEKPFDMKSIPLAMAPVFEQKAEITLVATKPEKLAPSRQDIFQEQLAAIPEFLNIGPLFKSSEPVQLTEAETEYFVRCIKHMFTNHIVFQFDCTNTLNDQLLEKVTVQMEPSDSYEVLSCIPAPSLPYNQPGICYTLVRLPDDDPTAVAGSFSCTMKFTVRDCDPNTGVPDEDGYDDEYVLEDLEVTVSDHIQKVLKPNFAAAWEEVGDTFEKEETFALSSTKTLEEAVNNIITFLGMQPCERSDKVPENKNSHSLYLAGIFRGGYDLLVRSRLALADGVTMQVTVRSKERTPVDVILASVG
UniProt O43405: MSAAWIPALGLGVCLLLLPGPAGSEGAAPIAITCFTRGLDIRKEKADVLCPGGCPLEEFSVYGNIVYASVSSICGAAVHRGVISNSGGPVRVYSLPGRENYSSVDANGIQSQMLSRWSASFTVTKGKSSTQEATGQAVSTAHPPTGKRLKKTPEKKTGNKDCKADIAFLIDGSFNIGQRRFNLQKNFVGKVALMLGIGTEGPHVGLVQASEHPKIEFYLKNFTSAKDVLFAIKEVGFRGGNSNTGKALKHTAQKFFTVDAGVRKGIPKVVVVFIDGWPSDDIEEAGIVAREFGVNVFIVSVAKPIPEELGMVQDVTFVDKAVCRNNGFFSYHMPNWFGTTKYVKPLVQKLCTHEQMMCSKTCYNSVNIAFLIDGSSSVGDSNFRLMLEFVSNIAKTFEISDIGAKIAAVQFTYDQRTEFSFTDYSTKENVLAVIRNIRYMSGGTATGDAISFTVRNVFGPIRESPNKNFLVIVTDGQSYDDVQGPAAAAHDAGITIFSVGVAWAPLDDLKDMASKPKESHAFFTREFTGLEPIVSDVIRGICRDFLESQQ
UniProt O14548: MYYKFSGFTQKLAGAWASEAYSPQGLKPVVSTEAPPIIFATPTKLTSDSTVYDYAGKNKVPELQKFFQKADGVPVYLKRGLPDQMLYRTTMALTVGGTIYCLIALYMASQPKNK
UniProt O75175, whole entry, looked up: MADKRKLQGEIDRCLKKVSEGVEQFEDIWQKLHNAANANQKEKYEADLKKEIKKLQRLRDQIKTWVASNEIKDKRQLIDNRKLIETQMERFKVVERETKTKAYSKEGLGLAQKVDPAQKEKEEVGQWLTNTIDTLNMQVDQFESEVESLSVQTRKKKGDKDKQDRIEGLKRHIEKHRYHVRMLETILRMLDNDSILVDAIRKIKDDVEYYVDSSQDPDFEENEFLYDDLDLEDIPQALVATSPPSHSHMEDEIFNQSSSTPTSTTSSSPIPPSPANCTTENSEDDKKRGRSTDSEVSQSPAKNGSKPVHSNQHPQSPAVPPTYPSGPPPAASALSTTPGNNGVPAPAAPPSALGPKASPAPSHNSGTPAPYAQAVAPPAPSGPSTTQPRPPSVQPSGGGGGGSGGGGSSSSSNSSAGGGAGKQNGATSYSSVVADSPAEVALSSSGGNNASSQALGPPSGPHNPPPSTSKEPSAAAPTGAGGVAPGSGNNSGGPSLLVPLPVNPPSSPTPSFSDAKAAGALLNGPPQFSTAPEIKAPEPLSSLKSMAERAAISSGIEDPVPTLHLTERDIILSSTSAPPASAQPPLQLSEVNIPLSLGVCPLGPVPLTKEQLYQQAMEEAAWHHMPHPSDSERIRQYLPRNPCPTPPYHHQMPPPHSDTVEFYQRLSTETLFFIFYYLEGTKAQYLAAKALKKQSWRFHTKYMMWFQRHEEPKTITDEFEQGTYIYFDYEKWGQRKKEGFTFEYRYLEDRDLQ
UniProt Q9H9A5, whole entry, looked up: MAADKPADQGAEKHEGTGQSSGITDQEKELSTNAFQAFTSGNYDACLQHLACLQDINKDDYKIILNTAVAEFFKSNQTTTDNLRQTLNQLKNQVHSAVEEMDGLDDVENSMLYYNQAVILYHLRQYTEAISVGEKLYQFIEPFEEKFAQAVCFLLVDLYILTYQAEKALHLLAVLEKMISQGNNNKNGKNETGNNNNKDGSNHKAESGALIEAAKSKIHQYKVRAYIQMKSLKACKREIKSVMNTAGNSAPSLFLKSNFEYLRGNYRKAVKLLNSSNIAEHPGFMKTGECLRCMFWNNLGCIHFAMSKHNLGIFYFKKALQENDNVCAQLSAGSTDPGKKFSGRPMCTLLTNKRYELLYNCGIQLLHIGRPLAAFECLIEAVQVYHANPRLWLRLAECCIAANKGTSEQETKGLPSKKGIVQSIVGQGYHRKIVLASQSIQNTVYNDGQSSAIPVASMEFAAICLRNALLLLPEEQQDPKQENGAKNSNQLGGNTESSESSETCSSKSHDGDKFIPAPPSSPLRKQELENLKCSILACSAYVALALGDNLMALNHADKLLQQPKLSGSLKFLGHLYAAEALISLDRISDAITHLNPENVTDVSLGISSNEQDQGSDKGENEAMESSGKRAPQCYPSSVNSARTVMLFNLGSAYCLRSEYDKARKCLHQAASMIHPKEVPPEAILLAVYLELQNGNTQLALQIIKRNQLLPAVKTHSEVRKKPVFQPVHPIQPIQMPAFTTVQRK
UniProt P53618: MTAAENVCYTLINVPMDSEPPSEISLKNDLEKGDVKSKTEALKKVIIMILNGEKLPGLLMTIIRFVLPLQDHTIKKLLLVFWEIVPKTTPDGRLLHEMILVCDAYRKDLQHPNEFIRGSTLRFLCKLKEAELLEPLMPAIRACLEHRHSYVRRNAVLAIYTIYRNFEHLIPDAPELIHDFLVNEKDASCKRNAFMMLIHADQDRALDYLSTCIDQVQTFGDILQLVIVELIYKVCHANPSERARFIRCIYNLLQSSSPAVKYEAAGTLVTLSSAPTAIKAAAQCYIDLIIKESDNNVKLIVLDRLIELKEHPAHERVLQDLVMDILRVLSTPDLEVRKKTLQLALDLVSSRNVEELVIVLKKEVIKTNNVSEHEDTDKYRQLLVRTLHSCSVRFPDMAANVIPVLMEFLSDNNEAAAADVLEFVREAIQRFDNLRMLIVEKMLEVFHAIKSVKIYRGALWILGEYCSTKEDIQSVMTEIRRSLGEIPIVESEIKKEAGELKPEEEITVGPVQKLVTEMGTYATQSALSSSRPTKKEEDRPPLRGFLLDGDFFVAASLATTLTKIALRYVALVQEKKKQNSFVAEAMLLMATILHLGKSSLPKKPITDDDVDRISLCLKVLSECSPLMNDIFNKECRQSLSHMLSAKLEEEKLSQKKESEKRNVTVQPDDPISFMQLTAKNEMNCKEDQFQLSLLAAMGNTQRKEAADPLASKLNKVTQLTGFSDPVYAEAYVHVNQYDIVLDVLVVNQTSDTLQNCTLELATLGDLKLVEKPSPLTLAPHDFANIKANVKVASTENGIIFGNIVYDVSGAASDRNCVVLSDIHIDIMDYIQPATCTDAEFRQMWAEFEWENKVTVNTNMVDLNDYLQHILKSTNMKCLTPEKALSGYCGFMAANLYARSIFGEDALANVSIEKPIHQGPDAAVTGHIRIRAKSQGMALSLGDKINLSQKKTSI
UniProt Q92828: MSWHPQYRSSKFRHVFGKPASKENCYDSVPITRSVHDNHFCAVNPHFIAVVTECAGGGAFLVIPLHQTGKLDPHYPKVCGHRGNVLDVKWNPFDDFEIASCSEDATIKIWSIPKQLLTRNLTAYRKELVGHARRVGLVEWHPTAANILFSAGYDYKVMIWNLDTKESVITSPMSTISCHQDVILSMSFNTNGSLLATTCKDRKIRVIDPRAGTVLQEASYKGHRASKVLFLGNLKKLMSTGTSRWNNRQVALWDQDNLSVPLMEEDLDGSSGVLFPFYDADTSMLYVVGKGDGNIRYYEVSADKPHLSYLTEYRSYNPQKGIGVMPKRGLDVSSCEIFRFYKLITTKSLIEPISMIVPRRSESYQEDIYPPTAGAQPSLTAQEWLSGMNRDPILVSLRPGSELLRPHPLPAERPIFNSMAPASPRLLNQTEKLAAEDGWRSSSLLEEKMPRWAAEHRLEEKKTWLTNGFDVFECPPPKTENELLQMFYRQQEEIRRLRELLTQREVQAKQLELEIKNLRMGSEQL
UniProt Q9UIV1, whole entry, looked up: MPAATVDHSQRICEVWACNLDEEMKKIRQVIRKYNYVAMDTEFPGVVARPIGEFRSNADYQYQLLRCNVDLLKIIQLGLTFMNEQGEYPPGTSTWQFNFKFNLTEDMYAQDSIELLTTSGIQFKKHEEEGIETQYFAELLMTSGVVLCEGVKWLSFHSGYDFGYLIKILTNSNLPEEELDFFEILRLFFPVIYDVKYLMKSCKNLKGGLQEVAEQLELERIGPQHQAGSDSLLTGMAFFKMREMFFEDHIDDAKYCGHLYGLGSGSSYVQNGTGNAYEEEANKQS
UniProt Q9NX08, whole entry, looked up: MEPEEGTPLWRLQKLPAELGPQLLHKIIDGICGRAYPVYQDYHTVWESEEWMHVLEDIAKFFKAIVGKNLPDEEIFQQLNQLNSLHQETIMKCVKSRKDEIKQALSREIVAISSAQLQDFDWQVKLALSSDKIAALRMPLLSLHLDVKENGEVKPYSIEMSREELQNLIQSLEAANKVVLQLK

How the values were obtained:
Experiment in all cases: log2 fold change, soluble protein after heating vs DMSO (PISA); higher = thermal stabilisation; K562 lysate, 10 uM; active = over 0.2 and 3.5 SD of the protein, either way, in both replicates (recomputed)
alvocidib = compound: CN1CC[C@H](c2c(O)cc(O)c3c(=O)cc(-c4ccccc4Cl)oc23)[C@H](O)C1 [alvocidib]
How it was run: (§1)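 Thermal stability, expressed as log-two fold change relative to solvent controls, is given from duplicates. Crude K562 extract in PBS pH 7.4 with 1 mM MgCl2, at 1 mg/mL protein, was treated with 10 μM compound for 30 min and heated in aliquots for 3 min across 48°C-58°C. After pooling, adjustment to 0.5% NP-40 at 4°C and centrifugation at 21,000xg for 90 min, supernatant protein was measured by TMTpro 16plex LC-MS/MS with channel sums equalised.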

Tubastatin A = compound: CN1CCc2c(c3ccccc3n2Cc2ccc(C(=O)NO)cc2)C1 [Tubastatin A]
How it was run: as §1

[1] = compound: CNC(=O)C1=CC=CC=C1NC2=NC(=NC=C2Cl)NC3=C(C=C(C=C3)N4CCOCC4)OC
How it was run: as §1

defactinib = compound: CNC(=O)c1ccc(Nc2ncc(C(F)(F)F)c(NCc3nccnc3N(C)S(C)(=O)=O)n2)cc1 [defactinib]
How it was run: as §1

[2] = compound: CNc1nc(-c2ccc3c(N)n[nH]c3c2)cc(N2C[C@@H](C(=O)NC3CCCCC3)CC[C@H]2C)n1
How it was run: as §1

encorafenib = compound: COC(=O)N[C@@H](C)CNc1nccc(-c2cn(C(C)C)nc2-c2cc(Cl)cc(NS(C)(=O)=O)c2F)n1 [encorafenib]
How it was run: as §1

[3] = compound: COC(=O)[C@H](CCSC)NC(=O)C1=C(C=C(C=C1)NC[C@H](CS)N)C2=CC=CC=C2
How it was run: as §1

alisertib = compound: COc1cc(Nc2ncc3c(n2)-c2ccc(Cl)cc2C(c2c(F)cccc2OC)=NC3)ccc1C(=O)O [alisertib]
How it was run: as §1

[4] = compound: COc1cc2nc(-c3cc(F)ccc3O)nc(N[C@@H]3CNC[C@H]3C(C)(C)O)c2cc1OC
How it was run: as §1

gefitinib = compound: COc1cc2ncnc(Nc3ccc(F)c(Cl)c3)c2cc1OCCCN1CCOCC1 [gefitinib]
How it was run: as §1

lapatinib = compound: CS(=O)(=O)CCNCc1ccc(-c2ccc3ncnc(Nc4ccc(OCc5cccc(F)c5)c(Cl)c4)c3c2)o1 [lapatinib]
How it was run: as §1

pictilisib = compound: CS(=O)(=O)N1CCN(Cc2cc3nc(-c4cccc5[nH]ncc45)nc(N4CCOCC4)c3s2)CC1 [pictilisib]
How it was run: as §1

crizotinib = compound: C[C@@H](Oc1cc(-c2cnn(C3CCNCC3)c2)cnc1N)c1c(Cl)ccc(F)c1Cl [crizotinib]
How it was run: as §1

[5] = compound: C[C@H](C1=CC=C(C=C1)C(=O)NC2=C3C=CNC3=NC=C2)N
How it was run: as §1

duvelisib = compound: C[C@H](Nc1ncnc2nc[nH]c12)c1cc2cccc(Cl)c2c(=O)n1-c1ccccc1 [duvelisib]
How it was run: as §1

gandotinib = compound: Cc1cc(Nc2cc(CN3CCOCC3)c3nc(C)c(Cc4ccc(Cl)cc4F)n3n2)n[nH]1 [gandotinib]
How it was run: as §1

tozasertib = compound: Cc1cc(Nc2cc(N3CCN(C)CC3)nc(Sc3ccc(NC(=O)C4CC4)cc3)n2)n[nH]1 [tozasertib]
How it was run: as §1

doramapimod = compound: Cc1ccc(-n2nc(C(C)(C)C)cc2NC(=O)Nc2ccc(OCCN3CCOCC3)c3ccccc23)cc1 [doramapimod]
How it was run: as §1

bafetinib = compound: Cc1ccc(NC(=O)c2ccc(CN3CC[C@H](N(C)C)C3)c(C(F)(F)F)c2)cc1Nc1nccc(-c2cncnc2)n1 [bafetinib]
How it was run: as §1

[6] = compound: Cc1cccc(CC(=O)N2CCc3c2ccc(-c2cn(C)c4ncnc(N)c24)c3F)n1
How it was run: as §1

Measured: log2 fold change

CNN2 (UniProt Q99439)
inactive: alvocidib -0.037 | Tubastatin A -0.003 | [1] 0.003 | defactinib -0.041 | [2] 0.081 | encorafenib -0.006 | [3] -0.026 | alisertib -0.006 | [4] 0.007 | gefitinib 0 | lapatinib 0.009 | pictilisib 0.005 | crizotinib 0.045 | [5] -0.027 | duvelisib -0.011 | gandotinib 0.029 | tozasertib 0.025 | doramapimod 0.03 | bafetinib 0.047 | [6] 0.016

COMMD4 (UniProt Q9H0A8)
inactive: alvocidib -0.017 | Tubastatin A -0.131 | [1] 0.021 | defactinib -0.017 | [2] -0.022 | encorafenib 0.026 | [3] -0.162 | alisertib -0.06 | [4] 0.005 | gefitinib -0.018 | lapatinib 0.004 | pictilisib -0.013 | crizotinib 0.008 | [5] -0.064 | duvelisib 0.047 | gandotinib -0.012 | tozasertib -0.059 | doramapimod 0.028 | bafetinib 0.032 | [6] -0.003

COX6B1 (UniProt P14854)
inactive: alvocidib 0.115 | Tubastatin A 0.094 | [1] 0.084 | defactinib 0.223 | [2] 0.075 | encorafenib -0.001 | [3] 0.021 | alisertib 0.021 | [4] -0.037 | gefitinib -0.071 | lapatinib 0.058 | pictilisib -0.024 | crizotinib -0.002 | [5] 0.187 | duvelisib -0.006 | gandotinib -0.121 | tozasertib 0.05 | doramapimod 0.048 | bafetinib 0.06 | [6] -0.045

CPQ (UniProt Q9Y646)
inactive: alvocidib -0.002 | Tubastatin A 0.045 | [1] 0.033 | defactinib 0.035 | [2] 0.087 | encorafenib 0.058 | [3] -0.039 | alisertib -0.001 | [4] 0.013 | gefitinib -0.022 | lapatinib -0.05 | pictilisib -0.054 | crizotinib 0.006 | [5] 0.065 | duvelisib -0.007 | gandotinib -0.018 | tozasertib -0.049 | doramapimod 0.013 | bafetinib 0.067 | [6] -0.055

Random excerpt: 2 entries already listed.
COX6B1 (UniProt P14854)
inactive: alvocidib 0.115 | Tubastatin A 0.094 | [1] 0.084 | defactinib 0.223 | [2] 0.075 | encorafenib -0.001 | [3] 0.021 | alisertib 0.021 | [4] -0.037 | gefitinib -0.071 | lapatinib 0.058 | pictilisib -0.024 | crizotinib -0.002 | [5] 0.187 | duvelisib -0.006 | gandotinib -0.121 | tozasertib 0.05 | doramapimod 0.048 | bafetinib 0.06 | [6] -0.045

CPQ (UniProt Q9Y646)
inactive: alvocidib -0.002 | Tubastatin A 0.045 | [1] 0.033 | defactinib 0.035 | [2] 0.087 | encorafenib 0.058 | [3] -0.039 | alisertib -0.001 | [4] 0.013 | gefitinib -0.022 | lapatinib -0.05 | pictilisib -0.054 | crizotinib 0.006 | [5] 0.065 | duvelisib -0.007 | gandotinib -0.018 | tozasertib -0.049 | doramapimod 0.013 | bafetinib 0.067 | [6] -0.055

(cont.)

CPSF7 isoform 3 (UniProt Q8N684)
inactive: alvocidib -0.055 | Tubastatin A 0 | [1] 0 | defactinib 0.011 | [2] -0.021 | encorafenib 0.037 | [3] -0.042 | alisertib 0.028 | [4] -0.007 | gefitinib -0.037 | lapatinib -0.01 | pictilisib -0.024 | crizotinib 0.012 | [5] -0.058 | duvelisib -0.029 | gandotinib -0.059 | tozasertib -0.018 | doramapimod 0.015 | bafetinib -0.024 | [6] 0.005

COG3 (UniProt Q96JB2)
inactive: alvocidib -0.023 | Tubastatin A -0.09 | [1] 0.042 | defactinib -0.016 | [2] -0.041 | encorafenib -0.013 | [3] -0.045 | alisertib 0.032 | [4] -0.018 | gefitinib -0.026 | lapatinib -0.036 | pictilisib -0.054 | crizotinib -0.062 | [5] -0.036 | duvelisib 0.006 | gandotinib -0.064 | tozasertib 0.015 | doramapimod 0.03 | bafetinib 0.003 | [6] 0.093

COPG2 (UniProt Q9UBF2)
inactive: alvocidib -0.01 | Tubastatin A 0.025 | [1] -0.004 | defactinib -0.006 | [2] 0.002 | encorafenib -0.016 | [3] 0.027 | alisertib -0.003 | [4] 0.007 | gefitinib -0.017 | lapatinib -0.015 | pictilisib -0.03 | crizotinib -0.009 | [5] 0.011 | duvelisib 0.015 | gandotinib -0.015 | tozasertib -0.009 | doramapimod 0.022 | bafetinib -0.032 | [6] 0.001

COCH (UniProt O43405)
inactive: alvocidib -0.018 | Tubastatin A 0.051 | [1] 0.164 | defactinib -0.012 | [2] 0.059 | encorafenib -0.012 | [3] 0.092 | alisertib -0.069 | [4] 0.082 | gefitinib 0.074 | lapatinib 0.104 | pictilisib 0.021 | crizotinib -0.004 | [5] -0.163 | duvelisib -0.033 | gandotinib 0.001 | tozasertib 0.016 | doramapimod 0.006 | bafetinib -0.062 | [6] -0.021

COX7A2L (UniProt O14548)
inactive: alvocidib 0 | Tubastatin A 0.025 | [1] 0.014 | defactinib 0.132 | [2] 0.02 | encorafenib -0.005 | [3] -0.015 | alisertib 0.005 | [4] -0.014 | gefitinib -0.048 | lapatinib 0.03 | pictilisib 0.113 | crizotinib -0.049 | [5] -0.044 | duvelisib 0.004 | gandotinib 0.049 | tozasertib 0.049 | doramapimod 0.055 | bafetinib -0.039 | [6] 0.123

CNPY3 (UniProt Q9BT09)
inactive: alvocidib 0.01 | Tubastatin A 0.015 | [1] 0.009 | defactinib -0.061 | [2] 0.029 | encorafenib -0.031 | [3] -0.074 | alisertib -0.016 | [4] 0.002 | gefitinib 0.178 | lapatinib -0.025 | pictilisib -0.028 | crizotinib 0.061 | [5] 0.027 | duvelisib 0.012 | gandotinib -0.015 | tozasertib -0.021 | doramapimod -0.003 | bafetinib 0.066 | [6] -0.019

CNOT3 (UniProt O75175)
inactive: alvocidib 0.002 | Tubastatin A -0.02 | [1] 0.025 | defactinib -0.034 | [2] 0.055 | encorafenib 0.009 | [3] 0.058 | alisertib 0.028 | [4] 0.002 | gefitinib -0.02 | lapatinib -0.008 | pictilisib 0.004 | crizotinib 0.1 | [5] -0.046 | duvelisib 0.028 | gandotinib -0.029 | tozasertib -0.038 | doramapimod -0.035 | bafetinib -0.009 | [6] 0.048

CNOT10 (UniProt Q9H9A5)
inactive: alvocidib 0.017 | Tubastatin A -0.043 | [1] 0.025 | defactinib 0.018 | [2] 0.096 | encorafenib 0.014 | [3] 0.072 | alisertib 0.012 | [4] 0 | gefitinib 0.012 | lapatinib 0.013 | pictilisib 0.018 | crizotinib -0.016 | [5] -0.05 | duvelisib 0.002 | gandotinib -0.097 | tozasertib 0.007 | doramapimod -0.007 | bafetinib -0.031 | [6] 0.113

COPB1 (UniProt P53618)
inactive: alvocidib -0.038 | Tubastatin A 0.01 | [1] -0.025 | defactinib 0.003 | [2] -0.003 | encorafenib 0.021 | [3] 0.006 | alisertib -0.002 | [4] 0.017 | gefitinib 0.015 | lapatinib -0.013 | pictilisib -0.016 | crizotinib -0.003 | [5] -0.08 | duvelisib 0.029 | gandotinib 0.043 | tozasertib -0.025 | doramapimod 0.003 | bafetinib -0.03 | [6] 0.056

CORO2A (UniProt Q92828)
inactive: alvocidib 0.087 | Tubastatin A -0.097 | [1] -0.001 | defactinib -0.021 | [2] 0.016 | encorafenib 0.008 | [3] 0.009 | alisertib 0.018 | [4] 0.003 | gefitinib -0.011 | lapatinib -0.018 | pictilisib -0.112 | crizotinib -0.057 | [5] -0.014 | duvelisib 0.041 | gandotinib 0.029 | tozasertib -0.006 | doramapimod 0.07 | bafetinib -0.107 | [6] -0.103

CNOT7 (UniProt Q9UIV1)
inactive: alvocidib 0.007 | Tubastatin A -0.04 | [1] 0.008 | defactinib 0.012 | [2] -0.016 | encorafenib -0.003 | [3] 0.034 | alisertib 0.004 | [4] 0.001 | gefitinib -0.016 | lapatinib 0.003 | pictilisib -0.031 | crizotinib 0.002 | [5] -0.017 | duvelisib 0.044 | gandotinib -0.084 | tozasertib -0.018 | doramapimod 0.025 | bafetinib -0.009 | [6] 0.012

COMMD8 (UniProt Q9NX08)
inactive: alvocidib 0.093 | Tubastatin A 0.117 | [1] 0.113 | defactinib 0.006 | [2] 0.024 | encorafenib 0.104 | [3] -0.296 | alisertib 0.063 | [4] 0.019 | gefitinib -0.189 | lapatinib 0.061 | pictilisib -0.138 | crizotinib -0.02 | [5] 0.019 | duvelisib -0.041 | gandotinib -0.178 | tozasertib -0.091 | doramapimod -0.028 | bafetinib -0.143 | [6] -0.079
